# Source: patent US4230456A (Eastman Kodak Company, priority 1978, dated 1980)
# For at least one compound, name, drawing or mass did not settle the structure.
# How the values were obtained:
# albumin = experiment: ANS affinity for albumin versus PVA; format: binding
# plasma albumin = conditions: cited from earlier work
structure (smiles),measurement,setting,value
"O=S(=O)(O)c1cccc2cccc(Nc3ccccc3)c12 [ANS, 8-anilinonaphthalene-1-sulfonate]",affinity for albumin compared with PVA,albumin,much higher affinity for albumin than PVA
same,"fluorescence, unbound state",plasma albumin; aqueous solution,nonfluorescent in aqueous solution
same,fluorescence when adsorbed by plasma albumin,plasma albumin,fluoresces brightly when adsorbed by plasma albumin
